The source of these data is article PMC10685607.

Amino acid sequences for entries named in this document (tags omitted).
UniProt Q92963: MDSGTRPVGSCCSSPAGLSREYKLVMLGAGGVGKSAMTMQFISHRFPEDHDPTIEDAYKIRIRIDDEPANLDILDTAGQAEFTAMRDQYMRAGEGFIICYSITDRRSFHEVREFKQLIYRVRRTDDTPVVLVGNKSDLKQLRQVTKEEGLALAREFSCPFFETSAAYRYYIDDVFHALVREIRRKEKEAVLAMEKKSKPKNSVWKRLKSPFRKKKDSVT
UniProt Q9UQE7: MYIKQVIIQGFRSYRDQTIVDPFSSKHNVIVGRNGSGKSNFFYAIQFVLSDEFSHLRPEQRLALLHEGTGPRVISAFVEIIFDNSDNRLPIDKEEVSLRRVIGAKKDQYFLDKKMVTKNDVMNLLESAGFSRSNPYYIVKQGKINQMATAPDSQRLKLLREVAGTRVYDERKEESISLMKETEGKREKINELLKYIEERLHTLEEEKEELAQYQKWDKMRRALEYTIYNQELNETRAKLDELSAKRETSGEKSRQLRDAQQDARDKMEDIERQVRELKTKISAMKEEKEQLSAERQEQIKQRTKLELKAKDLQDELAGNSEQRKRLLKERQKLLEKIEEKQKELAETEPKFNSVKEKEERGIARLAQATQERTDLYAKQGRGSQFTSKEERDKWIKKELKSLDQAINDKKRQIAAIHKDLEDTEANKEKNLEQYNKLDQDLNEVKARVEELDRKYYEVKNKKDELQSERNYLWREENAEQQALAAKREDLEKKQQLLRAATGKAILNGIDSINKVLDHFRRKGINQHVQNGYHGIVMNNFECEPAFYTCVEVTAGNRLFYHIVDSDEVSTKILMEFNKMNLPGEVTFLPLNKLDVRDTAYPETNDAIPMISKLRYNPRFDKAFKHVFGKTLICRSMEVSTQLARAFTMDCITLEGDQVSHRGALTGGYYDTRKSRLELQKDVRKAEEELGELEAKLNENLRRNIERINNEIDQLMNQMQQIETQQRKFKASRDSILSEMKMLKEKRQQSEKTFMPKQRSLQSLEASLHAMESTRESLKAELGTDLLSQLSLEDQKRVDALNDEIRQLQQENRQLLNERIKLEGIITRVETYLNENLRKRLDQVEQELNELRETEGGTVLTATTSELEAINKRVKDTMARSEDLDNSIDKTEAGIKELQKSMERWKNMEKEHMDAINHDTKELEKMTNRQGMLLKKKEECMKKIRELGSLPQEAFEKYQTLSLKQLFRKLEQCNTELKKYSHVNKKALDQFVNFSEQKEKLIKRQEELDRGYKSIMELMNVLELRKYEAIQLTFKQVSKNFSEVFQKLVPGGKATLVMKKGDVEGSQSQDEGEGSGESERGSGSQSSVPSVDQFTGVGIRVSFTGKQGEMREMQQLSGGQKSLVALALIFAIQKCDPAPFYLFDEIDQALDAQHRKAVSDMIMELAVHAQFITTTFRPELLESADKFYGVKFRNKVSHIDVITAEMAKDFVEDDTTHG

Like-named read-outs stand apart in the source and are kept apart here. Results are given in words; binding and its absence hold for the method and conditions named. In cells and extracts the contact can be indirect. Some results given as binding are weak or reduced against the parent protein; the word gives no strength.

Assay [1] has as its target Myc-tagged RIT1 (Ras-like-without-CAAX-1), expressed in HCC cells (human) (UniProt Q92963). The assay can be described thus: co-IP; lysates (RIPA buffer) of HCC-LY10, Huh7 and Hep3B cells transfected with Myc-RIT1 plasmid; anti-Myc or anti-SMC3 antibody, 4 °C 16 h, protein A/G-agarose, western blot.
Assay [2] addresses RIT1 in HCC cells with RIT1 overexpression (human) (UniProt Q92963). The assay can be described thus: co-IP; lysates (RIPA buffer) of Huh7, HCC-LY10 or Hep3B cells with RIT1 overexpression, asynchronous or enriched in mitosis; protein A/G-agarose, western blot. (In general: In western blotting, separated proteins are transferred to a membrane and probed.)
In assay [3] the target is RIT1 in HCC-LY10 cells with PDS5 knockdown or control (human) (UniProt Q92963). Nature of the assay: co-IP; lysates of HCC-LY10 cells with PDS5 knockdown or control; western blot.
Assay [4] deals with Myc-RIT1 wild-type, expressed in 293T cells (human) (UniProt Q92963). Nature of the assay: co-IP; lysates (RIPA buffer) of 293T cells co-transfected with Myc-RIT1 (WT, ΔN or ΔC) and Flag-SMC3 plasmids; anti-Myc or anti-Flag antibody, protein A/G-agarose, western blot.
In assay [5] the target is RIT1 in HCC cells with RIT1 overexpression (human) (UniProt Q92963). The assay can be described thus: co-IP; lysates (RIPA buffer) of Huh7, HCC-LY10 or Hep3B cells with RIT1 overexpression, asynchronous or enriched in mitosis; protein A/G-agarose, western blot. This is another data set of the same source.

For the molecule “structural maintenance of chromosome 3 (SMC3), endogenous (from UniProt Q9UQE7 1-1217)”, the binding result in assay [1], in assay [2] and in assay [3] was “binds” each time.
Flag-SMC3 (from UniProt Q9UQE7 1-1217): in assay [4], the binding result is “binds”.

B1: PDS5 cohesin associated factor B (PDS5B), endogenous (protein, UniProt Q9NTI5 1-1447)
chain: MAHSKTRTNDGKITYPPGVKEISDKISKEEMVRRLKMVVKTFMDMDQDSEEEKELYLNLALHLASDFFLKHPDKDVRLLVACCLADIFRIYAPEAPYTSPDKLKDIFMFITRQLKGLEDTKSPQFNRYFYLLENIAWVKSYNICFELEDSNEIFTQLYRTLFSVINNGHNQKVHMHMVDLMSSIICEGDTVSQELLDTVLVNLVPAHKNLNKQAYDLAKALLKRTAQAIEPYITNFFNQVLMLGKTSISDLSEHVFDLILELYNIDSHLLLSVLPQLEFKLKSNDNEERLQVVKLLAKMFGAKDSELASQNKPLWQCYLGRFNDIHVPIRLECVKFASHCLMNHPDLAKDLTEYLKVRSHDPEEAIRHDVIVSIVTAAKKDILLVNDHLLNFVRERTLDKRWRVRKEAMMGLAQIYKKYALQSAAGKDAAKQIAWIKDKLLHIYYQNSIDDRLLVERIFAQYMVPHNLETTERMKCLYYLYATLDLNAVKALNEMWKCQNLLRHQVKDLLDLIKQPKTDASVKAIFSKVMVITRNLPDPGKAQDFMKKFTQVLEDDEKIRKQLEVLVSPTCSCKQAEGCVREITKKLGNPKQPTNPFLEMIKFLLERIAPVHIDTESISALIKQVNKSIDGTADDEDEGVPTDQAIRAGLELLKVLSFTHPISFHSAETFESLLACLKMDDEKVAEAALQIFKNTGSKIEEDFPHIRSALLPVLHHKSKKGPPRQAKYAIHCIHAIFSSKETQFAQIFEPLHKSLDPSNLEHLITPLVTIGHIALLAPDQFAAPLKSLVATFIVKDLLMNDRLPGKKTTKLWVPDEEVSPETMVKIQAIKMMVRWLLGMKNNHSKSGTSTLRLLTTILHSDGDLTEQGKISKPDMSRLRLAAGSAIVKLAQEPCYHEIITLEQYQLCALAINDECYQVRQVFAQKLHKGLSRLRLPLEYMAICALCAKDPVKERRAHARQCLVKNINVRREYLKQHAAVSEKLLSLLPEYVVPYTIHLLAHDPDYVKVQDIEQLKDVKECLWFVLEILMAKNENNSHAFIRKMVENIKQTKDAQGPDDAKMNEKLYTVCDVAMNIIMSKSTTYSLESPKDPVLPARFFTQPDKNFSNTKNYLPPEMKSFFTPGKPKTTNVLGAVNKPLSSAGKQSQTKSSRMETVSNASSSSNPSSPGRIKGRLDSSEMDHSENEDYTMSSPLPGKKSDKRDDSDLVRSELEKPRGRKKTPVTEQEEKLGMDDLTKLVQEQKPKGSQRSRKRGHTASESDEQQWPEEKRLKEDILENEDEQNSPPKKGKRGRPPKPLGGGTPKEEPTMKTSKKGSKKKSGPPAPEEEEEEERQSGNTEQKSKSKQHRVSRRAQQRAESPESSAIESTQSTPQKGRGRPSKTPSPSQPKKNVRVGRSKQAATKENDSSEEVDVFQGSSPVDDIPQEETEEEEVSTVNVRRRSAKRERR
On to B1, for which the binding result in assay [5] is “binds”.

B2: PDS5 cohesin associated factor A (PDS5A), endogenous (protein, UniProt Q29RF7 1-1337)
chain: MDFTAQPKPATALCGVVSADGKIAYPPGVKEITDKITTDEMIKRLKMVVKTFMDMDQDSEDEKQQYLPLALHLASEFFLRNPNKDVRLLVACCLADIFRIYAPEAPYTSHDKLKDIFLFITRQLKGLEDTKSPQFNRYFYLLENLAWVKSYNICFELEDCNEIFIQLFRTLFSVINNSHNKKVQMHMLDLMSSIIMEGDGVTQELLDSILINLIPAHKNLNKQSFDLAKVLLKRTVQTIEACIANFFNQVLVLGRSSVSDLSEHVFDLIQELFAIDPHLLLSVMPQLEFKLKSNDGEERLAVVRLLAKLFGSKDSDLATQNRPLWQCFLGRFNDIHVPVRLESVKFASHCLMNHPDLAKDLTEYLKVRSHDPEEAIRHDVIVTIITAAKRDLALVNDQLLGFVRERTLDKRWRVRKEAMMGLAQLYKKYCLHGEAGKEAAEKVSWIKDKLLHIYYQNSIDDKLLVEKIFAQYLVPHNLETEERMKCLYYLYASLDPNAVKALNEMWKCQNMLRSHVRELLDLHKQPTSEANCSAMFGKLMTIAKNLPDPGKAQDFVKKFNQVLGDDEKLRSQLELLISPTCSCKQADICVREIARKLANPKQPTNPFLEMVKFLLERIAPVHIDSEAISALVKLMNKSIEGTADDEEEGVSPDTAIRSGLELLKVLSFTHPTSFHSAETYESLLQCLRMEDDKVAEAAIQIFRNTGHKIETDLPQIRSTLIPILHQKAKRGTPHQAKQAVHCIHAIFTNKEVQLAQIFEPLSRSLNADVPEQLITPLVSLGHISMLAPDQFASPMKSVVANFIVKDLLMNDRSTGEKNGKLWSPDEEVSPEVLAKVQAIKLLVRWLLGMKNNQSKSANSTLRLLSAMLVSEGDLTEQKRISKSDMSRLRLAAGSAIMKLAQEPCYHEIITPEQFQLCALVINDECYQVRQIFAQKLHKALVKLLLPLEYMAIFALCAKDPVKERRAHARQCLLKNISIRREYIKQNPMATEKLLSLLPEYVVPYMIHLLAHDPDFTRSQDVDQLRDIKECLWFMLEVLMTKNENNSHAFMKKMAENIKLTRDAQSPDESKTNEKLYTVCDVALCVINSKSALCNADSPKDPVLPMKFFTQPEKDFCNDKSYISEETRVLLLTGKPKPAGVLGAVNKPLSATGRKPYVRSTGTETGSNINVNSELNPSTGNRSREQSSEAAETGVSENEENPVRIISVTPVKNIDPVKNKEINSDQATQGNISSDRGKKRTVTAAGAENIQQKTDEKVDESGPPAPSKPRRGRRPKSESQGNATKNDDLNKPINKGRKRAAVGQESPGGLEAGNAKAPKLQDLAKKAAPAERQIDLQR
In the case of B2, the binding result in assay [5] was “binds”.
